Where “and” joins values, the source holds several entries; their conditions need not be identical. Identical values can stand only once. The campaign covered roughly 71,000 compounds. About 310 (0.44%) were called active. The inconclusive results got no clear call from the source; some entries with a clear call stand among them for comparison. Calls follow the shape of the dose curve; as a rule, active = well fitted curve in either direction with a large enough effect; inconclusive = small, poorly fitted or top-dose-only effect, or another doubt; inactive = flat fitted curve, though single readings scatter. A potency beside an inconclusive call is a rough fit, not a confirmed value. Some compounds were tested as several samples or in several runs, with calls that do not always agree.
Tested on: Hsp90 C-terminal peptide / TPR2A (Hop) interaction, human
Experiment: qHTS Assay for Disrupters of an Hsp90 Co-Chaperone Interaction
Conditions: AlphaScreen TPR2A-His6 binding biotin-Hsp90 C-terminal peptide; activity change, negative = inhibition: at 57 µM (top of the series) unless noted
% is scaled to controls: 0 for no effect and ±100 for the full control effect; potency is read from the fitted curve at half-maximal effect.

Structure (SMILES)	activity change, negative = inhibition	Potency
CCCN1CCN(CCCNC(=O)Cn2nc(-c3ccccc3)ccc2=O)CC1	inconclusive: 48.4%	
O=C(C1CC(c2ccccc2O)=NO1)N1CCCC1 (stereo not drawn)	inconclusive: 25.5%	
COc1ccc(Cl)cc1C(=O)CSc1nc(N)cc(N)n1		inconclusive: 31.6 µM [activator, single point]
O=C(Nc1ccc(-c2nc3cccnc3s2)cc1)c1ccco1	inconclusive: 45.1%	
CCN(CC)c1ccc(/C=N/n2c(C)cc(C)cc2=O)cc1	inactive: -7.82% [at 11 µM]	
N#CCCn1cnc2ccccc21	inconclusive: 43.2%	
Nc1ccc2oc(=O)c3ccccc3c2c1	inactive	
Cc1cc(C)cc(-n2ccnc2SCC(=O)Nc2ccc3c(c2)OCCO3)c1		inconclusive: 25.1 µM [inhibitor, partial curve]
Cc1noc(C)c1COC(=O)CCCOc1ccc(Cl)cc1Cl	inconclusive: 173%	
CN(C)c1ncc2nc(-c3cccs3)c(=O)n(C3CC3)c2n1		active: 3.98 µM [activator]
CCOC(=O)C(C(C)=O)c1c(Br)c(O)c(O)c2c(C(=O)c3ccc(C)cc3)coc12 (stereo not drawn)		inconclusive: 25.1 µM [inhibitor, partial curve]
CCC(C)NC(=O)c1cc(-c2ccc(OC)cc2)on1 (stereo not drawn)	inconclusive: 51.9%	
O=C(Nc1ccc2nc(-c3ccco3)c(-c3ccco3)nc2c1)N1CCCCCC1		inconclusive: 25.1 µM [inhibitor, partial curve]
O=C(O)c1cc(-c2ccco2)nc2ccc(Br)cc12	inactive	
COc1ccc(Oc2ncc3nc(-c4ccc(F)cc4)c(=O)n(CCC#N)c3n2)cc1	inactive	
COc1cccc2c(=O)n(CC(=O)NC3CCCC3)ccc12	inactive	
CSc1cccc(NC(=O)Nc2ccccc2)c1		inconclusive: 2.51 µM [activator, partial curve]
C=CCn1c(SCC(=O)OCc2ccccc2)nc2c1c(=O)n(C)c(=O)n2C	inconclusive: 48%	
COc1ccccc1-c1cc(C(=O)N2CCc3ccccc3C2)no1		inconclusive: 31.6 µM [activator, single point]
O=C(CSc1cccc2cccnc12)N1CCCC1		active: 10 µM
COc1ccccc1NC(=O)Cn1nc(C(F)(F)F)c2c1CCCC2	inactive	

Structure (SMILES)	activity change, negative = inhibition	Potency
CCOC(=O)C1=C(C)N2C(=C(C#N)[C@@H]1c1ccc(C(=O)OC)cc1)SC[C@@]2(O)C(C)(C)C		inconclusive: 31.6 µM [activator, single point]
CCOC(=O)Nc1ccc(NS(=O)(=O)c2ccc(C)cc2)cc1	inactive	
COc1ccc(CNc2cc(-c3ccccc3CN(C)C)ncn2)c(OC)c1	inactive	
c1nc(N2CCN(Cc3ccc4c(c3)OCO4)CC2)c2[nH]cnc2n1	inactive	
O=C(c1ccco1)N1CCC2(CC1)CN(c1cccc(-c3ccccc3)c1)C2		inconclusive: 25.1 µM [inhibitor, partial curve]
C=CCn1c(Cc2nc3ccccc3[nH]2)n[nH]c1=S		inconclusive: 31.6 µM [inhibitor, single point]
CCC12CC3CC(C1)CC(C(=O)Nc1nn[nH]n1)(C3)C2		inconclusive: 25.1 µM [inhibitor, partial curve]
O=C1CCCc2c1cc(C(=O)NCCCN1CCOCC1)c(=O)n2-c1ccc(Cl)cc1	inconclusive: 45.9%	
CO/C=C/C#CC1(O)CCN(C)CC1	inconclusive: 41.9%	
CC(C)[C@H](CO)Nc1nc(Nc2cc(N)cc(Cl)c2)c2ncn(C(C)C)c2n1		inconclusive: 7.94 µM [inhibitor, partial curve]
c1nc2sc3c(c2c2nnnn12)CCCC3	inconclusive: 26.3%	
Nc1ccc(N2CCCCC2)cc1N1CCCCC1		inconclusive: 25.1 µM [inhibitor, single point]
CCCC/C=C/C(NC(=O)Oc1cccc(C(F)(F)F)c1)c1ccccc1 (stereo not drawn)		inconclusive: 39.8 µM [activator, single point]
CC1(C)CC(=O)c2cn3c(nc2C1)nc1ccccc13	inactive	
CCC(=O)c1ccc(OCC(=O)N2CCc3cc(OC)c(OC)cc3C2)cc1	inactive	
NCCCCCc1nnc(SCc2cccc(Cl)c2)o1	inactive	
O=C(Cn1c(-c2ccccc2)noc1=O)Nc1ccc(N2CCCCCC2)cc1		inconclusive: 25.1 µM [inhibitor, partial curve]
CCOC(=O)CNc1ccc2c(c1)OCO2	inactive	
COC(=O)CCN(C(=O)c1ccc2c(c1)OCO2)c1ccccn1	inconclusive: 50.7%	
CCOc1ccccc1N1C(=O)c2cccnc2C1=O		inconclusive: 25.1 µM [inhibitor, single point]
O=S(=O)(c1ccccc1)N1CCC2(CCN(c3cccc(-c4ccccc4)c3)CC2)CC1	inconclusive: 54.4%	

Structure (SMILES)	activity change, negative = inhibition	Potency
CC1(C)CC(=O)C2=C(C1)OC(N)=C(C#N)C21CCN(Cc2ccccc2)CC1	inconclusive: 33.2%	
CSc1nc2cc(S(=O)(=O)N3CCCCC3)ccc2s1	inactive: 11.2% [at 11 µM]	
CCCCOC(=O)Nc1sc2c(c1C(=O)OC)CCC2		inconclusive: 20 µM [activator, single point]
N#CCSc1nc2c(c(C3CC=CCC3)c1C#N)CCC2 (stereo not drawn)		inconclusive: 20 µM [activator, single point]
CC1SC(=NC(=O)c2ccco2)NC1=O (stereo not drawn)	inconclusive: 55.2% [at 11 µM]	
C[C@H](NC(=O)/C(C#N)=C/c1ccc(O)c(O)c1)c1ccccc1		active: 12.6 µM and active: 7.94 µM
Cc1nnc(NC(=O)c2ccc(S(=O)(=O)N3CCCCCC3)cc2)o1		inconclusive: 31.6 µM [inhibitor, single point]
COc1ccc(CNc2ncncc2-c2c(C)noc2C)c(OC)c1	inactive	
CC(C)(C)c1cc(/C=C(\C#N)C(N)=S)cc(C(C)(C)C)c1O		inconclusive: 25.1 µM [inhibitor, partial curve]
CCOC(=O)c1cccc(NC(=O)CSc2nnc(COc3ccccc3)n2CC)c1	inconclusive: 58.1%	
Cc1ccc(C(=O)CSc2nnc(COc3cccc4cccnc34)o2)cc1	inactive	
Cc1ccc(C(=O)OCC(=O)N2CC(=O)Nc3ccccc32)s1	inactive	
O=C(CCCCCN1C(=O)CCC1=O)Nc1ncn[nH]1		inconclusive: 25.1 µM [inhibitor, partial curve]
Cc1ccccc1-c1nnc(SCC(=O)Nc2ccc(Cl)cc2)n1N	inconclusive: 46.5%	
C=CCn1c(-c2ccccc2)nc2nc3ccccc3nc21	inactive	
CC(=O)N1CCN(c2ccc(Nc3nc(C)nc4c3oc3ccccc34)cc2)CC1	inconclusive: 26.3%	
O=C(CN(Cc1ccco1)C(=O)CNS(=O)(=O)c1ccccc1)NCc1ccccc1	inactive	
CCC(C)NC(=O)c1cc(CC(C)C)on1 (stereo not drawn)	inconclusive: 44.9% [at 2.3 µM]	
Cc1ccccc1N1C(=O)C(Cl)=C(N2CCCCCC2)C1=O		inconclusive: 25.1 µM [activator, partial curve]
CC[C@H](C)N(C)C(=O)c1cc2ccccc2c(-c2ccccc2Cl)n1	inactive	
Nc1c(S(=O)(=O)O)cc(Nc2cccc(S(N)(=O)=O)c2)c2c1C(=O)c1ccccc1C2=O		inconclusive: 3.16 µM [inhibitor, partial curve]

Structure (SMILES)	activity change, negative = inhibition	Potency
Cc1cc(C2C(C#N)=C(N)SC(N)=C2C#N)c(C)s1	inactive	
O=C(O)/C=C\c1ccc(Cn2ccnc2)cc1	inactive	
COCCCNC(=O)CCC(=O)Nc1ccc2nc(N3CCOCC3)cc(C)c2c1	inactive	
CC(C)(c1cc(Br)c(O)c(Br)c1)c1cc(Br)c(O)c(Br)c1	inconclusive: 48.1%	
CC1Cc2ccccc2N1C(=O)CCS(=O)(=O)c1cccc2nonc12 (stereo not drawn)	inactive	
COc1cc(NC(=O)c2cc3c(C)nc4ccccc4c3o2)cc(OC)c1OC	inactive	
Cc1ccc(OCn2c(=O)sc3ccccc32)cc1		inconclusive: 25.1 µM [activator, single point]
CCCN1CCN(CCCNC(=O)c2cc3c(=O)n(C)c4ccccc4c3n2C)CC1	inactive: -2.82% [at 2.3 µM]	
COc1ccccc1OCCSc1nnnn1-c1ccc(C)cc1		inconclusive: 31.6 µM [activator, single point]
N#Cc1nc(COc2ccc(F)cc2)oc1N1CCN(Cc2ccccc2)CC1		inconclusive: 25.1 µM [inhibitor, partial curve]
CC(=O)Nc1nc(C)c(-c2csc(Nc3ccc(O)cc3)n2)s1	inactive	
CN1/C(=C\C(=O)c2cccs2)Sc2ccccc21		inconclusive: 25.1 µM [activator, single point]
CCOC(=O)CCN(Cc1cccs1)S(=O)(=O)c1ccc(F)cc1		inconclusive: 20 µM [activator, single point]
CCCn1c(-c2ccc(F)cc2)nc2c(N3CCN(Cc4nc(OC)cc(OC)n4)CC3)nc(C)nc21	inactive	
COCCn1c(C)cc(C(=O)COC(=O)c2c(C)nn(Cc3ccccc3)c2C)c1C	inactive	
O=C(NCc1ccc2c(c1)OCO2)c1ccccn1	inconclusive: 45.6%	
CCc1cccc2nc3c(c([Si](CC)(CC)CC)c12)Cn1c-3cccc1=O		active: 25.1 µM [activator]
CC(=O)N1CCN(c2ccc(NC(=O)c3ccc4c(c3)OCCO4)cc2)CC1	inactive	
Cc1ccc(OCc2nc(C#N)c(NCc3ccc4c(c3)OCO4)o2)cc1		inconclusive: 31.6 µM [inhibitor, single point]
Cc1cc2nc(C3CCN(CC4COc5ccccc5O4)CC3)[nH]c2cc1C (stereo not drawn)	inactive	
